PubChem BioAssay AID1259254 | NCATS, 2017
This is a random part of about 59,000 reagents. About 1,550 of all reagents (2.6%) were called active. 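G2 share is only a proxy for re-replication; each gene was hit by three separate siRNAs, and active genes were retested.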 Reagents against one gene are numbered here. Further read-outs or replicates are left out here. The record does not give: the amount of reagent.

Test: 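Genome-wide screen for genes that prevent DNA re-replication in cancer cells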 (primary screen)
System: human HCT116 colorectal cancer cells
Knock-down reagent: single siRNA against human genes
Timing: 3 days
Read-out: 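Imaged Hoechst DNA stain sorts each cell into a cycle phase by DNA amount; per plate, G2 fraction set to 0% for non-targeting and 100% for GMNN siRNA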
Reading the numbers: G2 robust z-score: higher = more G2 cells, more excess DNA replication
Rule for the call: 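An siRNA counts as active if its G2 robust z-score lies at least 5 MADs above the screen median; here such calls match roughly 38% of GMNN control or more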

Target gene	siRNA no.	G2 robust z-score	Outcome
GPX8	1	-0.131	inactive
GPX8	2	0.269	inactive
GPX8	3	2.9	inactive
PDYN	1	3.86	inactive
PDYN	2	-0.981	inactive
PDYN	3	-0.761	inactive
STX1A	1	0.899	inactive
STX1A	2	-0.759	inactive
STX1A	3	4.03	inactive
ZNF761	1	0.538	inactive
ZNF761	2	1.41	inactive
ZNF761	3	1.73	inactive
ZNF766	1	0.512	inactive
ZNF766	2	0.507	inactive
ZNF766	3	-0.378	inactive
NLRC5	1	1.08	inactive
NLRC5	2	0.073	inactive
NLRC5	3	-0.632	inactive
SPRY1	1	-0.382	inactive
SPRY1	2	-1.22	inactive
SPRY1	3	1.35	inactive
ZNF630	1	-0.744	inactive
ZNF630	2	-0.375	inactive
ZNF630	3	-0.427	inactive
PIM3	1	0.803	inactive
PIM3	2	-0.902	inactive
PIM3	3	0.146	inactive
NSUN2	1	-0.994	inactive
NSUN2	2	-1.02	inactive
NSUN2	3	1.37	inactive
SEL1L	1	3.3	inactive
SEL1L	2	4.6	inactive
SEL1L	3	-0.767	inactive
WDR24	1	0.775	inactive
WDR24	2	-1.2	inactive
WDR24	3	-0.222	inactive
GSTT2	1	-0.151	inactive
GSTT2	2	-0.758	inactive
GSTT2	3	1.46	inactive
ALG9	1	0.878	inactive
ALG9	2	0.991	inactive
ALG9	3	3.51	inactive
HOXB9	1	-0.267	inactive
HOXB9	2	-0.765	inactive
HOXB9	3	-0.478	inactive
CST3	1	-0.3	inactive
CST3	2	3.32	inactive
CST3	3	-0.0822	inactive
PCDHB12	1	-0.267	inactive
PCDHB12	2	-0.837	inactive
PCDHB12	3	2.77	inactive
MPPED2	1	0.16	inactive
MPPED2	2	0.111	inactive
MPPED2	3	0.122	inactive
PLA2G2A	1	2.2	inactive
PLA2G2A	2	-0.494	inactive
PLA2G2A	3	5.82	active
PSRC1	1	4.89	inactive
PSRC1	2	-0.873	inactive
PSRC1	3	0.0776	inactive
TXLNG	1	-0.343	inactive
TXLNG	2	0.611	inactive
TXLNG	3	0.245	inactive
SRCIN1	1	0.14	inactive
SRCIN1	2	0.205	inactive
SRCIN1	3	-1.01	inactive
OR51G1	1	0.448	inactive
OR51G1	2	-0.515	inactive
OR51G1	3	1.42	inactive
GTF2B	1	2.21	inactive
GTF2B	2	0.0233	inactive
GTF2B	3	2.15	inactive
ZNF148	1	0.482	inactive
ZNF148	2	2.46	inactive
ZNF148	3	-0.918	inactive
SSX6P	1	1.21	inactive
SSX6P	2	-1.2	inactive
SSX6P	3	-0.306	inactive
FANCI	1	-0.948	inactive
FANCI	2	-0.306	inactive
FANCI	3	-0.538	inactive
ZNF197	1	-0.981	inactive
ZNF197	2	-0.939	inactive
ZNF197	3	-0.342	inactive
TSLP	1	-0.00204	inactive
TSLP	2	0.666	inactive
TSLP	3	0.118	inactive

A stretch from the list above, as a working copy:
Target gene	siRNA no.	G2 robust z-score	Outcome
PDYN	3	-0.761	inactive
STX1A	1	0.899	inactive
STX1A	2	-0.759	inactive
STX1A	3	4.03	inactive
ZNF761	1	0.538	inactive
ZNF761	2	1.41	inactive
ZNF761	3	1.73	inactive
ZNF766	1	0.512	inactive
ZNF766	2	0.507	inactive
ZNF766	3	-0.378	inactive
